Values joined by “and” are separate entries in the source; they are usually repeats but may differ in a detail not shown here. Equal entries are not always repeated. Where two headings read alike, the source gives them in different places.
How the values were obtained:
[1] = tested on: dry matter degradation of oats and alfalfa hay in the rumen; type: in vivo, sheep
[2] = tested on: methane emissions by sheep; type: in vivo
[3] = tested on: methane production of dairy cows; parameters: species or system Holstein X Friesian dairy cows; conditions: in vivo

Compound | DMD oats (dry matter degradation) ([1]; 24 hours in the rumen of sheep, days 22 and 23, 100 mg per animal and day) [%] | DMD alfalfa hay (dry matter degradation) ([1]; 48 hours in the rumen of sheep, days 22 and 23, 100 mg per animal and day) [%] | intake ([2]; sheep, 100 mg per animal and day via ruminal cannula, day 14) [kg/day] | intake ([2]; sheep, 100 mg per animal and day via ruminal cannula, day 29) [kg/day] | intake ([2]; sheep, 100 mg per animal and day via ruminal cannula, day 30) [kg/day] | intake ([2]; sheep, 100 mg per animal and day via ruminal cannula, days 29-30 pooled) [kg/day] | DMI [3] | effect on daily dry matter intake (DMI) [3] | DMD alfalfa hay (dry matter degradation) ([1]; in vivo) [%] | DMD oats (dry matter degradation) ([1]; in vivo) [%] | intake ([2]; in vivo)
CCOC(=O)CCO[N+](=O)[O-] [Additive 1, ethyl-3-nitrooxypropionate, reference compound] | 74.0 | 78.3 | 0.849 | 0.944 | 0.925 | 0.933 |  |  |  |  | 
O=[N+]([O-])OCCCO [Compound 1, 3-Nitrooxypropanol] |  |  |  |  |  |  | 18.8 kg/day and 18.5 kg/day | no significant effect | 78.8 | 70.6 | 0.922 kg/day and 0.747 kg/day and 0.823 kg/day and 0.867 kg/day
